US20220298237A1 (KEIO UNIVERSITY, published 2022)

Molecular target: AQP3 on AQP3 expressing CHO cells (species not stated)
Assay: FACS on AQP3 expressing CHO cells, Fab

Binder	binding
SC-D1 (Fab) (Fab, V domains shown) VH: QSLEESRGRLVTPGGSLTLTCTVSGFSLSSYAMTWVRQAPGKGLEWIGIINNDGVSSTWYASWVKGRFTISKTSTTMDLKMTSLTTEDTATYFCARGGTSGYDIWGPGTLVTVSL VL: DPMMTQTPSPVSAAVGGTVTINCQSSPSVYKNYLSWYQQKPGQPPKLLIYGASTLASGVPSRFKGSGSGTQFTLTISGVQCDDAATYYCAGGYRGSSDIFAFGGGTEVVVK	binds
BC-H9 (Fab) (Fab, V domains shown) VH: QSLEESGGRLVTPGTPLTLTCTVSGFSLYTYAMGWVRQAPGKGLEWIGIINNDGISSTWYASWVKGRFTISKTSTTMDLKMTSLTTEDTATYFCARGGTSGYDIWGPGTLVTVSL VL: AQGLTQTPSPVSAAVGGTVTINCQSGPSVYKNYLSWYQQKAGQPPKLLIYGASTLASGVPSRFKGSGSGTQFTLTISDVQCDDAATYYCAGGYRGSSDIFAFGGGTEVVVK	binds
BC-F4 (Fab) (Fab, V domains shown) VH: QSVEESRGRLVTPGGSLTLTCTVSRFSLSNYAMTWVRQAPGKGLEWIGIINNDGISSTWYASWVKGRFTISKTSTTMDLKMTSLTTEDTATYFCARGGTSGYDIWGPGTLVTVSL VL: AQVLTQTPSPVSAAVGGTVTINCQSSPSVYKNYLSWYQQKPGQPPKLLIYGASTLASGVPSRFKGSGSGTQFTLTISDVQCDDAATYYCAGGYRGSSDIFAFGGGTEVVVK	binds
SC-B6 (Fab) (Fab, V domains shown) VH: QSVKESGGRLVTPGAPLTLTCTVSGFSLNNYAMTWVRQAPGKGLEWIGIINNDGISSTWYASWVKGRFIISKTSTTVDLKMTSLTTEDTATYFCARGGTSGYDIWGPGTLVTVSL VL: AQGPTQTPSPVSAAVGGTVTINCQSSPSVYKNYLSWYQQKPGQPPKLLIYGASTLASGVPSRFKGSRSGTQFTLTISDVQCDDAATYYCAGGYIGSRDIFSFGGGTEVVVK	binds

Further lines, results first:

binding	Binder
binds	SC-B2 (Fab) (Fab, V domains shown) VH: QEQLMESRGRLVTPGGSLTLTCTVSRFSLSNYAMTWVRQAPGKGLEWIGIINNDGISSTWYASWVKGRFTISKTSTTMDLKMTSLTTEDTATYFCARGGTSGYDIWGPGTLVTVSL VL: AQGPTQTPSPVSAAVGGTVTINCQSSPSVYKNYLSWYQQKPGQPPKLLIYGASTLASGVPSRFKGSGSGTQFTLTISDVQCDDAATYYCAGGYRGSGDIFAFGGGTEVVVK
binds	SC-F8 (Fab) (Fab, V domains shown) VH: QTVKESGGRLVTPGGSLTLTCTVSRFSLSNYAMTWVRQAPGKGLEWIGIINNDGISSTWYASWVKGRFTISKTSTTMDLKMTSLTTEDTATYFCARGGTSGYDIWGPGTLVTVSL VL: AQVLTQTPSPVSAAVGGTVTINCQSSPSVYKNYLSWYQQKPGQPPKLLIYGASTLASGVPSRFKGSGSGTQFTLTISDVQCDDAATYYCAGGYRGSSDIFAFGGGTEVVVK

No constants are given. Whether binding was seen depends on the method and setting. A result given as binding can be weak or reduced; the word gives no strength.
